Drawing on article PMC4363469, this text covers binding for 2 substances.

Chains of the proteins cited; added tags and fusions are not shown. Lines headed by an entry give the natural chain unless they say otherwise; changes in a name come on top. A line that says so, or that is headed by a name, gives the form on record, which may keep a tag or linker. Residues count along the entry.
FLAG-tagged CycT1 (1-278), wild type (O60563, residues 1-278): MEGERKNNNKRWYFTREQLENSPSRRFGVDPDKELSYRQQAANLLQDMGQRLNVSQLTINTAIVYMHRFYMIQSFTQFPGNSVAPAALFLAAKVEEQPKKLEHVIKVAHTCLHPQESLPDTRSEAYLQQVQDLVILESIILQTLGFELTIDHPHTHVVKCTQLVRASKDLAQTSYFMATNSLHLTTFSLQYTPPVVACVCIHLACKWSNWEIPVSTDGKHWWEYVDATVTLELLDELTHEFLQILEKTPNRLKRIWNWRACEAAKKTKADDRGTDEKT
FLAG-tagged CycT1 (1-278) H183A (O60563, form named): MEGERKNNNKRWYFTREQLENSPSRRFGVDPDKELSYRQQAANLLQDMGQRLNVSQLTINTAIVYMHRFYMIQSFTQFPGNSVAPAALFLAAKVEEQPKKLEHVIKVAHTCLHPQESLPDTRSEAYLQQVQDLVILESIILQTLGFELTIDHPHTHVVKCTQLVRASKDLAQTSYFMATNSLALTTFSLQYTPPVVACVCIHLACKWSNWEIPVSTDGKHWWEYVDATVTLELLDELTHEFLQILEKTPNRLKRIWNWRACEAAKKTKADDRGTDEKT
UniProt P04608: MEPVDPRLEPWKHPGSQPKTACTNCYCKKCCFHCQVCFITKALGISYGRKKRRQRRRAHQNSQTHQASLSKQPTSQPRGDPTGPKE

Test [1] has as its target FLAG-tagged CycT1 (1-278) H183A (human) (UniProt O60563). Description: co-IP; HEK293 cells co-transfected with FLAG-CycT1 (WT or mutant), HA-Tat and Myc-CDK9; high salt lysis buffer (50mM Tris-HCl pH 8.0, 300mM NaCl, 1mM EDTA, 0.5% NP-40, 10% glycerol); immunoprecipitated with anti-M2 (FLAG) beads 4hr at 4°C; blotted with anti-HA and anti-Myc.
Test [2] has as its target FLAG-tagged CycT1 (1-278), wild type (human) (UniProt O60563). Described as above.
Test [3] has as its target HA-tagged HIV-1 Tat (HIV-1) (UniProt P04608). Description: co-IP; same lysates of HEK293 cells co-transfected with FLAG-CycT1 (WT or mutant), HA-Tat and Myc-CDK9; high salt lysis buffer (300mM NaCl); immunoprecipitated with anti-HA antibody 4hr, then protein G-agarose 2 hr at 4°C; blotted for FLAG-CycT1 and Myc-CDK9.

No constants are given. Whether binding was seen depends on the method and setting. Binding seen in cells or lysates may run through a third protein. Some entries that bind do so weakly or less than the wild type.

In the case of “HA-tagged HIV-1 Tat (from UniProt P04608 1-86)”, the binding result in test [1] and in test [2] was “binds” in each case. Take “FLAG-tagged CycT1 (1-278), wild type (from UniProt O60563 1-278) (domain or fragment)”: the binding result in test [3] is recorded as “binds”.
